The values below are quoted from earlier work in US6610697B1, “Substituted 2-aryl-3-(heteroaryl)-imidazo[1,2-a]pyrimidines, and related pharmaceutical compositions and methods” (Ortho-McNeil Pharmaceutical, Inc., priority 1999, dated 2003).

One data set deals with inflammatory cytokines. Conditions: cited from earlier work.
For another data set, the system named is TNF-α and IL-1. The following applies: read-out: IC50 for reducing production of TNF-α and IL-1; LPS-stimulated human monocyte cell lines; cited from earlier work.

The IC50 is the concentration at which inhibition is half-maximal. Turning to `C[S+]([O-])c1ccc(-c2nc(-c3ccncc3)c(-c3ccc(F)cc3)[nH]2)cc1` (centres unmarked) [SB 203580], in the data set with inflammatory cytokines, the “IC50 for inhibiting production of the inflammatory cytokines in rats and mice” value is given as 15 to 25 mg/kg. In the data set with TNF-α and IL-1, the half-maximal inhibitory concentration (IC50) was 0.05 to 0.1 µM.
